Test results as given in paper PMC11358092, “Caspofungin enhances the potency of rifampin against Gram-negative bacteria” (Frontiers in Microbiology, 2024).

Test system: E. coli MG1655
Assay: High-throughput screening of FDA-approved drug library for antibiotic adjuvants (growth inhibition, OD600)
Format: cell-based, Escherichia coli

Structure (SMILES)	Growth inhibition, Compound [%]
CCCCCCCCCCCCCCCC[n+]1ccccc1 [Cetylpyridinium Chloride]	78
CCCCCCCCCCCCCCCC[n+]1ccccc1 [Cetylpyridinium chloride monohydrate]	87
